Source: the supplement of paper PMC10849652
The list shows a part of the results.

Sequences of proteins named here, by UniProt entry; tags and fusion partners are left off. A change or cut given only in a name is not applied to a line headed by its entry.
UniProt Q16850: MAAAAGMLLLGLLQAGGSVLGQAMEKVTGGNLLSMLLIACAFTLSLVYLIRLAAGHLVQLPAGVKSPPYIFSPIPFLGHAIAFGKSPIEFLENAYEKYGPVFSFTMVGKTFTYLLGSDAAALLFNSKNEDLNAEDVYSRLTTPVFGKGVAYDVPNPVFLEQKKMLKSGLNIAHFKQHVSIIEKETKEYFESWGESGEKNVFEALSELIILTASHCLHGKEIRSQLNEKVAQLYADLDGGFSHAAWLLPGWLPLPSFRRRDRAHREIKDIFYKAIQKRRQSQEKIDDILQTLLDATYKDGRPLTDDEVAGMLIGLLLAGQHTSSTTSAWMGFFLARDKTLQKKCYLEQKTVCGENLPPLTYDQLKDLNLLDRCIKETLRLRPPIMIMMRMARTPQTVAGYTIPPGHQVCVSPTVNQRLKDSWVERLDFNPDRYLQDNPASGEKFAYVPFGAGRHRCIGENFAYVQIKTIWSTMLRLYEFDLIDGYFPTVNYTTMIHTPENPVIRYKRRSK
UniProt P11182, whole entry, looked up: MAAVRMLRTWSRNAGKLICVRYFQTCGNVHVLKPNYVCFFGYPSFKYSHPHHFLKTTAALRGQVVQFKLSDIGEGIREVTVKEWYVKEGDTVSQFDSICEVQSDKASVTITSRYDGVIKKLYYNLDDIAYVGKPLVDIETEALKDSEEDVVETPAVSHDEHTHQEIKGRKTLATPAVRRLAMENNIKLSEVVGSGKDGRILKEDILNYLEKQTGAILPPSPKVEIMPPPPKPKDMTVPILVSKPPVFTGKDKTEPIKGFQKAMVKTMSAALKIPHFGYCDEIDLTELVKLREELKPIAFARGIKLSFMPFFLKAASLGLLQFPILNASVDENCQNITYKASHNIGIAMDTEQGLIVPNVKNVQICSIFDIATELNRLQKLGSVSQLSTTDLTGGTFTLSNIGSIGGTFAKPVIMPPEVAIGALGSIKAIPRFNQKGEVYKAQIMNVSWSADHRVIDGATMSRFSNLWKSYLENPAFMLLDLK
UniProt Q96C86: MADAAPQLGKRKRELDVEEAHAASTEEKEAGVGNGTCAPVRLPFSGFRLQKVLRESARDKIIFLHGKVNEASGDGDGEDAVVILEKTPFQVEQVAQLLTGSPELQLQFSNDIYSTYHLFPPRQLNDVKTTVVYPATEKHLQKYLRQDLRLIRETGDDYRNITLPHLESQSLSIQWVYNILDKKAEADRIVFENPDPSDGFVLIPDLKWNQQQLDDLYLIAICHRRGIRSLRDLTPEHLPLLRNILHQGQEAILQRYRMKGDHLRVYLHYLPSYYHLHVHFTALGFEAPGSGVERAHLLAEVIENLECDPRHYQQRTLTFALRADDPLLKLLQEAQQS
UniProt Q9Y6A2: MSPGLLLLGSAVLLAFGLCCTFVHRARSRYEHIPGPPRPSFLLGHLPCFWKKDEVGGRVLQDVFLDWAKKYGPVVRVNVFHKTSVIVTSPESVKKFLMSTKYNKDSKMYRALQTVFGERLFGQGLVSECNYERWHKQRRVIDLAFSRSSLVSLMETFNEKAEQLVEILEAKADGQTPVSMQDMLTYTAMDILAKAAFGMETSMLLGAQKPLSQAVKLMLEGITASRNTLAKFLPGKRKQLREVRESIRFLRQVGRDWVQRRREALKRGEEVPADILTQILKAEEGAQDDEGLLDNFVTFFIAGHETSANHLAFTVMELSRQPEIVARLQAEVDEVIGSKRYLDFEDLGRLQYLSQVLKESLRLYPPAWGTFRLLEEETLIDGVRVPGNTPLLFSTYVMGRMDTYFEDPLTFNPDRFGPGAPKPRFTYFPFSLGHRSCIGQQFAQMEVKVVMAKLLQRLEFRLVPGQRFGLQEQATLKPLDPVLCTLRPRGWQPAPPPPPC
UniProt O60716: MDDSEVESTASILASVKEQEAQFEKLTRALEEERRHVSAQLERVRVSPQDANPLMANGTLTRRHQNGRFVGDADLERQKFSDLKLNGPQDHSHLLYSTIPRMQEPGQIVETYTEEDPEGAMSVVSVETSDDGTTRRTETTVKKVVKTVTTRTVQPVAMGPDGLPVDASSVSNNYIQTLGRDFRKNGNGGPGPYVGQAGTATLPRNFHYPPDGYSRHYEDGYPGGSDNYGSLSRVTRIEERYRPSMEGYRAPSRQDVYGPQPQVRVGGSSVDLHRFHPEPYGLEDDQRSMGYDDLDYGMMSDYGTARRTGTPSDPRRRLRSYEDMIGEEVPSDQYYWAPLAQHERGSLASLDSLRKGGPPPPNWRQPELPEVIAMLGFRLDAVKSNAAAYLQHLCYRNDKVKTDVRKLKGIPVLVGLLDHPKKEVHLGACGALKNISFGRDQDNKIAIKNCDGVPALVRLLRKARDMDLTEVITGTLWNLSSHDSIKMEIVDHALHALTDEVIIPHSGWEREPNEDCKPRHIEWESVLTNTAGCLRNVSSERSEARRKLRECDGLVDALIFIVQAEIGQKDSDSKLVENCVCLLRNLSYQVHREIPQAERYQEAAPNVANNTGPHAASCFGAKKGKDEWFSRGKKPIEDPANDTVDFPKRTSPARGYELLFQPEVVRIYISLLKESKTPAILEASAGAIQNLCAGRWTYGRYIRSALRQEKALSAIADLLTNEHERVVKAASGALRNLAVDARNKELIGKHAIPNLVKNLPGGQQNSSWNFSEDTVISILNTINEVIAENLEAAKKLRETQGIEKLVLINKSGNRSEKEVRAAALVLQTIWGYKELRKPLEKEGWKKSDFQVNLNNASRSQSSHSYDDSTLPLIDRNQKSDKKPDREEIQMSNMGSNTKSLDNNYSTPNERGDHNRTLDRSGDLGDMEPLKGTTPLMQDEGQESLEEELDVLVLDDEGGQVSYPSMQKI
UniProt Q14203, whole entry, looked up: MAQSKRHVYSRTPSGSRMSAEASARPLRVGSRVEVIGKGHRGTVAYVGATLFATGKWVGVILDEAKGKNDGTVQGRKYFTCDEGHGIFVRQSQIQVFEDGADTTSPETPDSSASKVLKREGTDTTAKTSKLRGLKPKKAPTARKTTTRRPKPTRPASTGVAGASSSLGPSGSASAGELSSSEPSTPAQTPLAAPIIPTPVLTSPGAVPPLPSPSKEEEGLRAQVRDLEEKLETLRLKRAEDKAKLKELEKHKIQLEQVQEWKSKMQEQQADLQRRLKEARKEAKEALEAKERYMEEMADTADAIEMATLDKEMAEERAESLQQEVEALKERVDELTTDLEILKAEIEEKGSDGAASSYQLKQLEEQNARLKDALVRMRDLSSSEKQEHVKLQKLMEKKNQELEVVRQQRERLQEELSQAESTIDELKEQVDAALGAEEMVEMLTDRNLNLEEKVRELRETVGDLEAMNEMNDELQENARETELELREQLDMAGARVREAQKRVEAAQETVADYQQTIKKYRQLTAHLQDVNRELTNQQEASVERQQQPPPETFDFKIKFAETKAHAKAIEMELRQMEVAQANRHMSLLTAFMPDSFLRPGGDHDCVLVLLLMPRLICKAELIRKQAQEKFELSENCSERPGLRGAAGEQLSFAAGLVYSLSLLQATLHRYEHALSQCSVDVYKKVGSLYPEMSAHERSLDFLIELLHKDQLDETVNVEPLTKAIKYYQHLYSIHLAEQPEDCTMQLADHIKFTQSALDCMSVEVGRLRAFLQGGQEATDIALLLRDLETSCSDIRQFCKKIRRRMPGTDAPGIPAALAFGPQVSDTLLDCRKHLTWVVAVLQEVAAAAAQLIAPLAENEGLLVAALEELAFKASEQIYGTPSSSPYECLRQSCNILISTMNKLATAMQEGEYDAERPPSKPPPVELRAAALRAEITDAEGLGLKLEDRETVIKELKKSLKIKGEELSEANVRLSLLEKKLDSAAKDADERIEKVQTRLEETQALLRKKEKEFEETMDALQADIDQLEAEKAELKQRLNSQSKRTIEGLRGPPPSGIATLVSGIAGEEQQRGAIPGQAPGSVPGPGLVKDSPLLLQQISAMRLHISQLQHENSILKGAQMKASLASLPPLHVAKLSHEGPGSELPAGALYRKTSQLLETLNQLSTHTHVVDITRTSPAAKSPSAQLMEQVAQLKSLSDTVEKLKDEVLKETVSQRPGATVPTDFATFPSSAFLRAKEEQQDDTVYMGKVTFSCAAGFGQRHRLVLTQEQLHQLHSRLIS
UniProt Q92564: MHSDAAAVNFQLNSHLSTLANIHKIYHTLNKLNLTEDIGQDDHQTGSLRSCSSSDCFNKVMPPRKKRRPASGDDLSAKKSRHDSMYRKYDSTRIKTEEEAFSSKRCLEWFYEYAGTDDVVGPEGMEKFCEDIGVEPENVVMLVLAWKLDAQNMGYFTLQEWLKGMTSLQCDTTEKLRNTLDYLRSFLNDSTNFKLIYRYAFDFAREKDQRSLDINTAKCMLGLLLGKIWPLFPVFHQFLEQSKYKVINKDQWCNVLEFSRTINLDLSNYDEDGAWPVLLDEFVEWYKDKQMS
UniProt P10619: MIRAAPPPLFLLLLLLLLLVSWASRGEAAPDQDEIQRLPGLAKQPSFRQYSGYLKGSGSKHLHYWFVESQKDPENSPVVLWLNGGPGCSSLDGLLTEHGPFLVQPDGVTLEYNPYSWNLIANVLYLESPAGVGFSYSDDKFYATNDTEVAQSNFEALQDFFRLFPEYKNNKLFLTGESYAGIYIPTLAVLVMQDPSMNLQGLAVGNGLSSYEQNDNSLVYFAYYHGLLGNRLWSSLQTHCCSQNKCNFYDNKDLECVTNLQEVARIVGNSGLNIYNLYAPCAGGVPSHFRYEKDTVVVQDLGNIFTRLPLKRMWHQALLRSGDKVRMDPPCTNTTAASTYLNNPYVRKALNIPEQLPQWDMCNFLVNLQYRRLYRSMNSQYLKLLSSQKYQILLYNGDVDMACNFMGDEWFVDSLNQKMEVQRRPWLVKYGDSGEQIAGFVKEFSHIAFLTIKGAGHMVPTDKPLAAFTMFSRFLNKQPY
UniProt Q9H467: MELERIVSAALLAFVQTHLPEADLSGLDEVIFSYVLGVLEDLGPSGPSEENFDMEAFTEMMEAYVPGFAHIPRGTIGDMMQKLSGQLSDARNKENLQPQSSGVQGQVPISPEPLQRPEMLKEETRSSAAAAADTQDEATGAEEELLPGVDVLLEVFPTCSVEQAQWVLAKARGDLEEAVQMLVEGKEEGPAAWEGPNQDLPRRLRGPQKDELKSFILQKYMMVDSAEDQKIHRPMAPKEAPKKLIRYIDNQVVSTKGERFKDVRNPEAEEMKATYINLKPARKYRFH
UniProt Q9P0U4, whole entry, looked up: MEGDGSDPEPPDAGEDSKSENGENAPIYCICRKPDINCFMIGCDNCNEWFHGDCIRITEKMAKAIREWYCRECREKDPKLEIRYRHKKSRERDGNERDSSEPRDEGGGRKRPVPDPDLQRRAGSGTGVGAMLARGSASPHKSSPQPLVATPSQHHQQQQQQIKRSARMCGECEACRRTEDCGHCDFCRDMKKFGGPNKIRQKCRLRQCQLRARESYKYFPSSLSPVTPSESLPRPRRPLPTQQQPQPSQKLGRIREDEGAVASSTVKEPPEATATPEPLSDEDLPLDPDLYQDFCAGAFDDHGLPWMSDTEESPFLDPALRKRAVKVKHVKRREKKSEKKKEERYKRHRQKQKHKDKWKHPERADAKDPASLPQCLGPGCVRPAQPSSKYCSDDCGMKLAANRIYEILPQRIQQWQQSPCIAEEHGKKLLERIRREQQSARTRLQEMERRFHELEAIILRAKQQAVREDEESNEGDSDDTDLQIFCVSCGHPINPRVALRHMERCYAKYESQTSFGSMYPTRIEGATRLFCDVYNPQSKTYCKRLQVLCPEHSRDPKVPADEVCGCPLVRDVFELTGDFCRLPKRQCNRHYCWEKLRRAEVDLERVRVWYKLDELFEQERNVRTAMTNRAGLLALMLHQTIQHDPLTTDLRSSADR
UniProt Q5QP82: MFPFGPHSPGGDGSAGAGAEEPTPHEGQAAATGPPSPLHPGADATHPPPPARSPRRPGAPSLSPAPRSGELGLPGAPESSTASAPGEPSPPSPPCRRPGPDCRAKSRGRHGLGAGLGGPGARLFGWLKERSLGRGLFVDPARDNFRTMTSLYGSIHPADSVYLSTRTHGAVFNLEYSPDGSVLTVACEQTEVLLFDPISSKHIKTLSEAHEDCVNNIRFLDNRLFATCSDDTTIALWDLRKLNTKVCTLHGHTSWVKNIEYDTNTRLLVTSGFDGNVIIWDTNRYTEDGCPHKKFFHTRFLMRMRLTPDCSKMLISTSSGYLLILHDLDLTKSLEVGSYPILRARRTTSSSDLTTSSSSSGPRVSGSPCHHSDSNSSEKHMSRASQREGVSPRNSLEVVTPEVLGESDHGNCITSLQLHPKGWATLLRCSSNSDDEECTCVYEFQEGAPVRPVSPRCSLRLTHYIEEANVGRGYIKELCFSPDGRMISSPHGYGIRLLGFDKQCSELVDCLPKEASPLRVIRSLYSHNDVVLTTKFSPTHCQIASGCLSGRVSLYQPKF
UniProt Q9NXF7, whole entry, looked up: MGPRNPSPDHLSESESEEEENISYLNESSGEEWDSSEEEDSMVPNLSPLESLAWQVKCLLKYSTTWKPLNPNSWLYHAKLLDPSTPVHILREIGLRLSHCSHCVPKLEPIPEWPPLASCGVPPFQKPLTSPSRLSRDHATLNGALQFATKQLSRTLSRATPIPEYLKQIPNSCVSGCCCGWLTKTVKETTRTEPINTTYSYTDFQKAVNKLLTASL

Assays:
Test in all cases: log2 fold change, soluble protein after heating vs DMSO (PISA); higher = thermal stabilisation; K562 cells, 10 uM, 30 min; active = over 0.2 and 3.5 SD of the protein, either way, in both replicates (recomputed)
saracatinib = compound: CN1CCN(CCOc2cc(OC3CCOCC3)c3c(Nc4c(Cl)ccc5c4OCO5)ncnc3c2)CC1 [saracatinib]
Procedure, shortened: (§1)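 Aliquots of K562 cells (2×10^6 cells/mL) treated with 10 μM compound for 30 min were heated for 3 min over 48°C-58°C. After pooling and extraction in PBS with 0.5% NP-40 at 4°C, soluble protein from a 21,000xg, 90 min spin was quantified by TMTpro 16plex LC-MS/MS with channel sums equalised. Thermal stability is expressed against control samples, from duplicates, as a log2 fold change.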

sotrastaurin = compound: CN1CCN(c2nc(C3=C(c4c[nH]c5ccccc45)C(=O)NC3=O)c3ccccc3n2)CC1 [sotrastaurin]
Procedure, shortened: as §1

Tubastatin A = compound: CN1CCc2c(c3ccccc3n2Cc2ccc(C(=O)NO)cc2)C1 [Tubastatin A]
Procedure, shortened: as §1

[1] = compound: CNC(=O)C1=CC=CC=C1NC2=NC(=NC=C2Cl)NC3=C(C=C(C=C3)N4CCOCC4)OC
Procedure, shortened: as §1

defactinib = compound: CNC(=O)c1ccc(Nc2ncc(C(F)(F)F)c(NCc3nccnc3N(C)S(C)(=O)=O)n2)cc1 [defactinib]
Procedure, shortened: as §1

rucaparib = compound: CNCc1ccc(-c2[nH]c3cc(F)cc4c3c2CCNC4=O)cc1 [rucaparib]
Procedure, shortened: as §1

[2] = compound: CNc1nc(-c2ccc3c(N)n[nH]c3c2)cc(N2C[C@@H](C(=O)NC3CCCCC3)CC[C@H]2C)n1
Procedure, shortened: as §1

encorafenib = compound: COC(=O)N[C@@H](C)CNc1nccc(-c2cn(C(C)C)nc2-c2cc(Cl)cc(NS(C)(=O)=O)c2F)n1 [encorafenib]
Procedure, shortened: as §1

[3] = compound: COC(=O)[C@H](CCSC)NC(=O)C1=C(C=C(C=C1)NC[C@H](CS)N)C2=CC=CC=C2
Procedure, shortened: as §1

[4] = compound: COC1=CC=C(C=C1)CN2C=CC3=C2C=C(C=C3)C(=O)NO
Procedure, shortened: as §1

filanesib = compound: CON(C)C(=O)N1N=C(c2cc(F)ccc2F)S[C@@]1(CCCN)c1ccccc1 [filanesib]
Procedure, shortened: as §1

zotarolimus = compound: CO[C@H]1C[C@@H]2CC[C@@H](C)[C@@](O)(O2)C(=O)C(=O)N2CCCC[C@H]2C(=O)O[C@H]([C@H](C)C[C@@H]2CC[C@H](n3cnnn3)[C@H](OC)C2)CC(=O)[C@H](C)/C=C(\C)[C@@H](O)[C@@H](OC)C(=O)[C@H](C)C[C@H](C)/C=C/C=C/C=C/1C [zotarolimus]
Procedure, shortened: as §1

idasanutlin = compound: COc1cc(C(=O)O)ccc1NC(=O)[C@@H]1N[C@@H](CC(C)(C)C)[C@](C#N)(c2ccc(Cl)cc2F)[C@H]1c1cccc(Cl)c1F [idasanutlin]
Procedure, shortened: as §1

alisertib = compound: COc1cc(Nc2ncc3c(n2)-c2ccc(Cl)cc2C(c2c(F)cccc2OC)=NC3)ccc1C(=O)O [alisertib]
Procedure, shortened: as §1

[5] = compound: COc1cc2nc(-c3cc(F)ccc3O)nc(N[C@@H]3CNC[C@H]3C(C)(C)O)c2cc1OC
Procedure, shortened: as §1

gefitinib = compound: COc1cc2ncnc(Nc3ccc(F)c(Cl)c3)c2cc1OCCCN1CCOCC1 [gefitinib]
Procedure, shortened: as §1

[6] = compound: COc1cccc2cc(-c3nc([C@H]4CC[C@H](C(=O)O)CC4)n4ncnc(N)c34)[nH]c12
Procedure, shortened: as §1

lapatinib = compound: CS(=O)(=O)CCNCc1ccc(-c2ccc3ncnc(Nc4ccc(OCc5cccc(F)c5)c(Cl)c4)c3c2)o1 [lapatinib]
Procedure, shortened: as §1

pictilisib = compound: CS(=O)(=O)N1CCN(Cc2cc3nc(-c4cccc5[nH]ncc45)nc(N4CCOCC4)c3s2)CC1 [pictilisib]
Procedure, shortened: as §1

alvocidib = compound: CN1CC[C@H](c2c(O)cc(O)c3c(=O)cc(-c4ccccc4Cl)oc23)[C@H](O)C1 [alvocidib]
Procedure, shortened: as §1

| Target | log2 fold change (saracatinib) | log2 fold change (sotrastaurin) | log2 fold change (Tubastatin A) | log2 fold change [1] | log2 fold change (defactinib) | log2 fold change (rucaparib) | log2 fold change [2] | log2 fold change (encorafenib) | log2 fold change [3] | log2 fold change [4] | log2 fold change (filanesib) | log2 fold change (zotarolimus) | log2 fold change (idasanutlin) | log2 fold change (alisertib) | log2 fold change [5] | log2 fold change (gefitinib) | log2 fold change [6] | log2 fold change (lapatinib) | log2 fold change (pictilisib) | log2 fold change (alvocidib) |
| --- | --- | --- | --- | --- | --- | --- | --- | --- | --- | --- | --- | --- | --- | --- | --- | --- | --- | --- | --- | --- |
| CYP51A1 (UniProt Q16850) | inactive: -0.072 | inactive: -0.029 | inactive: -0.024 | inactive: 0.065 | inactive: 0 | inactive: 0.162 | inactive: 0.212 | inactive: 0.029 | inactive: -0.135 | inactive: -0.035 | inactive: 0.217 | inactive: -0.11 | inactive: 0.099 | inactive: -0.025 | inactive: -0.005 | inactive: 0.009 | inactive: -0.105 | active: 0.401 | inactive: -0.216 |  |
| DBT (UniProt P11182) | inactive: -0.012 | inactive: 0.025 | inactive: -0.072 | inactive: 0.048 | inactive: 0.071 | inactive: 0.089 | inactive: -0.03 | inactive: 0.046 | inactive: -0.013 | inactive: 0.009 | inactive: 0.012 | inactive: 0.007 | inactive: 0.015 | inactive: 0.003 | inactive: -0.006 | inactive: -0.021 | inactive: 0.039 | inactive: 0.004 | inactive: 0.052 |  |
| DCPS (UniProt Q96C86) | inactive: 0.041 | inactive: 0.021 | inactive: -0.002 | inactive: -0.049 | inactive: -0.007 | inactive: -0.043 | inactive: -0.045 | inactive: -0.029 | inactive: 0.006 | inactive: -0.024 | inactive: -0.015 | inactive: -0.004 | inactive: 0.006 | inactive: -0.089 | inactive: 0.023 | inactive: 0.013 | inactive: 0.035 | inactive: -0.016 | inactive: 0.003 | inactive: 0.009 |
| CYP46A1 (UniProt Q9Y6A2) | inactive: -0.162 | inactive: 0.129 | inactive: -0.093 |  | inactive: -0.033 |  | inactive: -0.053 |  | inactive: -0.04 | inactive: -0.482 | inactive: 0.124 | inactive: -0.058 | inactive: -0.409 | inactive: -0.221 | inactive: 0.386 |  | inactive: 0.052 | inactive: -0.351 | inactive: 0.231 | inactive: 0.193 |
| CTNND1 (UniProt O60716) | inactive: -0.089 | inactive: -0.077 | inactive: -0.025 | inactive: 0.144 | inactive: 0.222 | inactive: 0.353 | inactive: 0.04 | inactive: 0.153 | inactive: 0.064 | inactive: -0.069 | inactive: 0.273 | inactive: 0.101 | inactive: 0.16 | inactive: -0.117 | inactive: -0.07 |  | inactive: -0.27 | inactive: -0.018 | inactive: 0.052 | inactive: -0.043 |
| DCTN1 isoform 4 (UniProt Q14203) | inactive: -0.126 | inactive: -0.159 | inactive: 0.079 | inactive: -0.056 | inactive: -0.037 | inactive: 0.227 | inactive: 0.074 | inactive: 0.083 | inactive: -0.068 | inactive: -0.007 | inactive: 0.047 | inactive: 0.095 | inactive: 0.012 | inactive: -0.045 | inactive: 0.007 | inactive: 0.042 | inactive: -0.083 | inactive: -0.007 | inactive: -0.135 |  |
| CYB5R2 (UniProt Q6BCY4) | inactive: 0.041 | inactive: 0.062 | inactive: -0.018 | inactive: -0.061 | inactive: -0.035 | inactive: -0.035 | inactive: -0.086 | inactive: -0.018 | inactive: -0.01 | inactive: 0.005 | inactive: 0 | inactive: -0.043 | inactive: 0.006 | inactive: -0.104 | inactive: 0.083 | inactive: -0.002 | inactive: 0.035 | inactive: 0.037 | inactive: 0.031 | inactive: 0.015 |
| DCUN1D4 isoform 3 (UniProt Q92564) | inactive: -0.01 | inactive: -0.07 | inactive: 0.055 |  | inactive: -0.259 | inactive: 0.01 | inactive: 0.029 | inactive: -0.183 | inactive: 0.168 | inactive: 0.017 | inactive: -0.016 | inactive: -0.096 | inactive: -0.03 | inactive: 0.023 |  |  | inactive: -0.107 |  |  | inactive: -0.204 |
| DCAF6 isoform 3 (UniProt Q58WW2) | inactive: 0.093 | inactive: 0.001 | inactive: -0.05 | inactive: -0.027 | inactive: -0.012 | inactive: -0.028 | inactive: -0.051 | inactive: 0 | inactive: 0.034 | inactive: -0.007 | inactive: -0.017 | inactive: -0.045 | inactive: -0.026 | inactive: -0.081 | inactive: -0.023 | inactive: -0.01 | inactive: 0.059 | inactive: 0.016 | inactive: 0.001 |  |
| CTSA (UniProt P10619) | inactive: 0.056 | inactive: 0.089 | inactive: -0.015 | inactive: 0.06 | inactive: 0.022 | inactive: -0.041 | inactive: 0.002 | inactive: 0.057 | inactive: 0.065 | inactive: 0.01 | inactive: -0.111 | inactive: -0.024 | inactive: 0.015 | inactive: 0.029 | inactive: 0.023 | inactive: 0.1 | inactive: 0.065 | inactive: 0.045 | inactive: 0.038 |  |
| CTBP1 (UniProt Q13363) | inactive: 0.02 | inactive: 0.032 | inactive: 0.013 | inactive: -0.03 | inactive: -0.021 | inactive: -0.056 | inactive: 0.029 | inactive: 0.012 | inactive: 0.034 | inactive: -0.013 | inactive: -0.046 | inactive: -0.005 | inactive: -0.037 | inactive: -0.087 | inactive: 0.041 | inactive: 0.015 | inactive: 0.06 | inactive: -0.011 | inactive: 0.069 | inactive: 0.031 |
| DCP1A (UniProt Q9NPI6) | inactive: 0.007 | inactive: 0.004 | inactive: 0.172 | inactive: -0.058 | inactive: -0.19 | inactive: 0.234 | inactive: -0.032 | inactive: 0.179 | inactive: -0.252 | inactive: -0.04 | inactive: 0.176 | inactive: -0.132 | inactive: 0.075 | inactive: 0.061 | inactive: 0.162 | inactive: -0.023 | inactive: -0.048 | inactive: 0 | inactive: -0.088 | inactive: -0.003 |
| CUEDC2 (UniProt Q9H467) | inactive: -0.003 | inactive: -0.045 | inactive: 0.197 | inactive: -0.036 | inactive: -0.067 | inactive: -0.033 | active: -0.338 | inactive: 0.071 | inactive: 0.016 | inactive: 0.233 | inactive: 0.018 | inactive: 0 | inactive: 0.005 | inactive: -0.035 | inactive: -0.018 | inactive: 0.168 | inactive: 0.023 | inactive: -0.035 | inactive: 0.014 |  |
| CXXC1 isoform 2 (UniProt Q9P0U4) | inactive: -0.032 | inactive: 0.078 | inactive: 0.098 |  | inactive: -0.046 |  | inactive: -0.015 |  | inactive: 0.145 | inactive: -0.03 | inactive: -0.005 | inactive: -0.064 | inactive: -0.104 |  | inactive: 0.098 |  |  | inactive: -0.075 | inactive: 0.121 | inactive: -0.077 |
| CTDP1 (UniProt Q9Y5B0) | inactive: -0.004 | inactive: -0.111 | inactive: -0.016 | inactive: 0.02 |  |  | inactive: 0.082 |  |  | inactive: 0.061 | inactive: -0.01 | inactive: -0.238 |  | inactive: -0.06 | inactive: 0.092 | inactive: -0.018 | inactive: 0.101 | inactive: 0.006 |  | inactive: 0.092 |
| DCAF10 (UniProt Q5QP82) | inactive: 0.09 | inactive: 0.021 | inactive: -0.094 | inactive: -0.018 | inactive: -0.009 | inactive: -0.083 | inactive: 0.007 | inactive: 0.052 | inactive: 0 | inactive: -0.047 | inactive: 0.016 | inactive: -0.01 | inactive: 0.002 | inactive: 0.09 | inactive: 0.076 | inactive: -0.051 | inactive: -0.067 | inactive: -0.081 | inactive: 0.032 |  |
| DCAF16 (UniProt Q9NXF7) | inactive: -0.052 | inactive: -0.036 | inactive: -0.006 | inactive: 0.084 | inactive: -0.054 | inactive: 0.033 | inactive: -0.05 | inactive: 0.004 | inactive: -0.041 | inactive: 0.065 | inactive: 0.077 | inactive: 0.035 | inactive: 0.037 | inactive: -0.07 | inactive: 0.021 | inactive: 0.022 | inactive: 0 | inactive: -0.168 | inactive: 0.132 |  |

No new results follow: entries from further up.

| Target | log2 fold change (saracatinib) | log2 fold change (sotrastaurin) | log2 fold change (Tubastatin A) | log2 fold change [1] | log2 fold change (defactinib) | log2 fold change (rucaparib) | log2 fold change [2] | log2 fold change (encorafenib) | log2 fold change [3] | log2 fold change [4] | log2 fold change (filanesib) | log2 fold change (zotarolimus) | log2 fold change (idasanutlin) | log2 fold change (alisertib) | log2 fold change [5] | log2 fold change (gefitinib) | log2 fold change [6] | log2 fold change (lapatinib) | log2 fold change (pictilisib) | log2 fold change (alvocidib) |
| --- | --- | --- | --- | --- | --- | --- | --- | --- | --- | --- | --- | --- | --- | --- | --- | --- | --- | --- | --- | --- |
| CYP51A1 (UniProt Q16850) | inactive: -0.072 | inactive: -0.029 | inactive: -0.024 | inactive: 0.065 | inactive: 0 | inactive: 0.162 | inactive: 0.212 | inactive: 0.029 | inactive: -0.135 | inactive: -0.035 | inactive: 0.217 | inactive: -0.11 | inactive: 0.099 | inactive: -0.025 | inactive: -0.005 | inactive: 0.009 | inactive: -0.105 | active: 0.401 | inactive: -0.216 |  |
| DBT (UniProt P11182) | inactive: -0.012 | inactive: 0.025 | inactive: -0.072 | inactive: 0.048 | inactive: 0.071 | inactive: 0.089 | inactive: -0.03 | inactive: 0.046 | inactive: -0.013 | inactive: 0.009 | inactive: 0.012 | inactive: 0.007 | inactive: 0.015 | inactive: 0.003 | inactive: -0.006 | inactive: -0.021 | inactive: 0.039 | inactive: 0.004 | inactive: 0.052 |  |
